At least one compound was matched to its structure with a doubt left. Some results were stated once for a whole list of compounds, not compound by compound.
Tested on: hematopoietic stem cells (bone marrow cells)
Test: Identification of hematopoietic stem cells in stained bone marrow cells by FACS with antibody markers (Experimental Examples 1-17, Comparative Examples 1-2)
Type: cell-based, C57BL/6 mouse
Details: same manner as Experimental Example 1
Experimental: A 1 mM DMSO solution of the compound 7 was added to an HBSS buffer containing 2% of FBS and 10 mM of HEPES, so as to obtain a stain of the compound 7 in a concentration of 1 μM. Bone marrow cells collected from a femur of a C57BL/6 mouse (of 12 weeks old) and hemolyzed were added to the stain in an amount of 1×10^6 cells/mL for exposure at 37° C. for 30 minutes. After the exposure, the cells were precipitated by centrifuge for removing the stain, and a blocking treatment was performed with 2.4G2 (anti-mouse Fcγ receptor II/III antibody-producing hybridoma supernatant). The blocked cells were further subjected to immunofluorescence staining with an anti c-Kit antibody, an anti Sca-1 antibody, an anti CD34 antibody and Lineage Marker. Furthermore, the cells were subjected to dead cell staining with TO-PRO-3. The respective antibodies used for fluorescence staining were selected so that the respective fluorescence wavelengths might not overlap one another and might not overlap the fluorescence wavelength of the compound 7 and the fluorescence wavelength of TO-PRO-3. Next, the resulting cells were analyzed with FACS Aria II cell sorter manufactured by BD Biosciences. In the analysis, cell populations having a low TO-PRO-3 signal were regarded as a target, so that the analysis could be performed on a cell population excluding dead cells.
First, fluorescence intensities of the cells obtained by analyzing fluorescence signals derived from the compound 7 based on signal intensities in two channels excited at 488 nm (PE-Cy5; 660/20 nm and PerCP-Cy 5.5; 710/50 nm: center wavelength/wavelength width) were developed into a cytogram.
Furthermore, among Lineage Marker negative cell fractions, cell fractions of Sca-1 positive, c-Kit positive and CD34 negative, which are used as markers for hematopoietic stem cells, were developed into cytograms as illustrated in FIG. 2 with respect to the two fluorescence signals derived from the compound 7 as in FIG. 1. […] Furthermore, merely cells identified by the compound 7 were separated by sorting.
Fluorescence signals derived from the compounds 8 to 23 were analyzed in the same manner as in Experimental Example 1 except that the compound 7 used in Experimental Example 1 was changed to each of the compounds 8 to 23.
Fluorescence signals derived from fluorescein were analyzed in the same manner as in Experimental Example 1 except that the compound 7 used in Experimental Example 1 was changed to fluorescein.
Fluorescence signals derived from Mito Tracker® Green FM were analyzed in the same manner as in Experimental Example 1 except that the compound 7 used in Experimental Example 1 was changed to Mito Tracker® Green FM.
The identification was evaluated in the following three grades A to C: […]

SMILES	Whether hematopoietic stem cells can be identified (in words)
CCN1C(=O)/C(=c2\s/c(=C/c3cc(Br)c4c(c3)C3CCCC3N4c3ccc(Br)cc3)c(=O)n2CC(=O)O)SC1=S (centres unmarked) [Compound 8]	hematopoietic stem cells can be identified
CCN1C(=O)/C(=c2\s/c(=C/c3ccc4c(c3)C3CCCC3N4c3ccc(OC)cc3)c(=O)n2CC(=O)O)SC1=S (centres unmarked) [Compound 9]	hematopoietic stem cells can be identified
O=C(O)Cn1c(=O)/c(=C\c2ccc3c(c2)C2CCCC2N3Cc2ccccc2)s/c1=C1/SC(=S)N(Cc2ccccc2)C1=O (centres unmarked) [Compound 10]	hematopoietic stem cells can be identified
COc1ccc(N2c3ccc(/C=c4/s/c(=C5/SC(=S)N(Cc6ccccc6)C5=O)n(CC(=O)O)c4=O)cc3C3CCCC32)cc1 (centres unmarked) [Compound 11]	hematopoietic stem cells can be identified
CCN1C(=O)/C(=c2\s/c(=C/c3ccc4c(c3)C3CCCC3N4c3ccccc3)c(=O)n2CC(=O)O)SC1=S (centres unmarked) [Compound 12]	hematopoietic stem cells can be identified
CCN1C(=O)/C(=c2\s/c(=C/c3ccc4c(c3)C3CCCC3N4c3ccc(SC)cc3)c(=O)n2CC(=O)O)SC1=S (centres unmarked) [Compound 13]	hematopoietic stem cells can be identified
CCN1C(=O)/C(=c2\s/c(=C/c3cc(Br)c4c(c3)C3CCCC3N4Cc3ccccc3)c(=O)n2CC(=O)O)SC1=S (centres unmarked) [Compound 14]	hematopoietic stem cells can be identified
C=CCN1C(=O)/C(=c2\s/c(=C/c3ccc4c(c3)C3CCCC3N4c3ccc(OC)cc3)c(=O)n2CC(=O)O)SC1=S (centres unmarked) [Compound 15]	hematopoietic stem cells can be identified
CCN1C(=O)S/C(=c2/s/c(=C/c3ccc4c(c3)C3CCCC3N4Cc3ccccc3)c(=O)n2CC(=O)O)C1=O (centres unmarked) [Compound 16]	hematopoietic stem cells can be identified
CCN1C(=O)/C(=c2\s/c(=C/c3ccc4c(c3)C3CCCC3N4Cc3ccccc3)c(=O)n2CC(=O)O)SC1=S (centres unmarked) [Compound 17]	hematopoietic stem cells can be identified
CCCN1C(=O)/C(=c2\s/c(=C/c3ccc4c(c3)C3CCCC3N4c3ccc(OC)cc3)c(=O)n2CC)SC1=S (centres unmarked) [Compound 18]	hematopoietic stem cells can be identified
CCCCCN1C(=O)/C(=c2\s/c(=C/c3ccc4c(c3)C3CCCC3N4c3ccc(OC)cc3)c(=O)n2CC)SC1=S (centres unmarked) [Compound 19]	hematopoietic stem cells can be identified
CCn1c(=O)/c(=C\c2ccc3c(c2)C2CCCC2N3c2ccccc2)s/c1=C1/SC(=S)N(CC(=O)O)C1=O (centres unmarked) [Compound 20]	hematopoietic stem cells can be identified
CCN1C(=O)/C(=c2\s/c(=C/c3ccc4c(c3)C3CCCC3N4c3cccc(SC)c3)c(=O)n2CC(=O)O)SC1=S (centres unmarked) [Compound 21]	hematopoietic stem cells can be identified
COc1ccc(N2c3ccc(/C=C4/SC(=S)N(CC(=O)NCC(=O)O)C4=O)cc3C3CCCC32)cc1 (centres unmarked) [Compound 22]	hematopoietic stem cells can be identified
O=C(O)CNC(=O)CN1C(=O)/C(=C\c2ccc3c(c2)C2CCCC2N3c2ccccc2)SC1=S (centres unmarked) [Compound 23]	hematopoietic stem cells can be identified
O=C1OC2(c3ccc(O)cc3Oc3cc(O)ccc32)c2ccccc21 [Fluorescein, fluorescein, reference compound]	cannot identify hematopoietic stem cells

Reference: patent US9228952B2, “Hematopoietic stem cell identification probe” (CANON KABUSHIKI KAISHA, priority 2012, dated 2016)
